Inconclusive means that the source gave no clear call. Such entries were picked first, then a sample of the others. Potencies of inconclusive entries are doubtful fits and often do not repeat. The source made the active and inactive calls. How the source made its calls: active means hit-call score of the fitted dose curve at least 0.9, where 1 is the maximum; inconclusive means response in the unintended direction; inactive means score below 0.9.
Read-out: Cytochrome P450 2B6 (Homo sapiens) (UniProt P20813)
Experiment: CLD_CYP2B6_48hr: CellzDirect (CLD) Gene Expression Assay for xenobiotic metabolism (CYP2B6) at 48 hours (AID 2283699);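 further: actives raise transcript level above DMSO so potency reflects induction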
Protocol: CLD_48hr is a cell-based, multiplexed-readout assay that uses hepatocyte, a human liver primary cell, with measurements taken at 48 hours after chemical dosing in a 96-well plate.CLD_CYP2B6_48hr is one of 16 assay component(s) measured or calculated from the CLD_48hr assay. It is designed to make measurements of mRNA induction, a form of inducible reporter, as detected with chemiluminescence signals by Quantitative Nuclease Protection Assay (qNPA) technology.Data from the assay component CLD_CYP2B6_48hr was analyzed at the endpoint, CLD_CYP2B6_48hr, in the positive analysis fitting direction relative to DMSO as the negative control and baseline of activity. Using a type of inducible reporter, gain-of-signal activity can be used to understand changes in the reporter gene as they relate to the gene CYP2B6. Furthermore, this assay endpoint can be referred to as a primary readout. To generalize the intended target to other relatable targets, this assay endpoint is annotated to the cyp intended target family, where subfamily is xenobiotic metabolism.
Human hepatocyte cultures were treated daily for two consecutive days with fresh dosing solutions containing appropriate concentrations of the 320 ToxCast chemicals (chemical identities were blinded to CellzDirect and other ToxCast collaborators), vehicle control (0.2% DMSO), and positive control inducers as summarized in Table 1. Due to the large number of treatment groups and chemicals examined, the ToxCast chemicals were divided into two groups (spanning two independent cultures of hepatocytes from separate donor preparations (Hu778: ToxCast plates 1 and 2; Hu776: ToxCast plates 3 and 4). Each preparation of human hepatocyte cultures was treated with respective vehicle control, medium only control, set of six positive controls/reference chemicals for the five hepatic receptor pathways, and a subset of eight of the ToxCast chemicals (indoxacarb, pyrithiobac-sodium, norflurazon, cyhalofop-butyl, methomyl, thiram, acetochlor, and propiconazole). These replicate data, coupled with internal replicates designed within the blinded ToxCast chemical library, provided additional data to evaluate interindividual differences between hepatocyte preparations and their potential impact on chemical profiles.Cell morphology and integrity were evaluated using phase-contrast microscopy as an indicator of hepatocyte cell health (Tyson & Green, 1987). Cultures for each treatment group (i.e., media, vehicle [0.2% DMSO], positive control inducers [multiple concentrations], and the ToxCast chemicals [multiple concentrations]) were observed and cell morphology was assessed relative to vehicle control cultures at each harvest time point (0, 6, 24, or 48 h). […] Images were evaluated at the conclusion of the study to assess changes in cell integrity and account for the effects of chemical exposure on uncharacteristic changes in concentration-dependent gene expression profiles. The results from these determinations of apparent cytotoxicity were annotated (yes/no) alongside the corresponding qNPA data for reference.At the conclusion of each treatment period, hepatocyte cultures (96-well) were washed with 1 volume of HBSS, lysed by addition of 25 ul ArrayPlate lysis buffer (HTG, Tucson, AZ), and 70 ul/well of Denaturation Oil, denatured by incubation at 95C for 10 min, and frozen at approximately -70C until analysis by nuclease protection assay (qNPA) (Roberts et al., 2007). For qNPA analysis, cell lysates were thawed at 50C for approximately 30 min, qNPA probes were added, and samples were incubated at 95C for 10 min to begin the detection process by denaturing the target RNA, dissociating the duplexes and secondary structure hybridization. At the conclusion of the hybridization period, S1 nuclease reagent was added to each sample to digest all nonprotected nucleotides at 50C for 60-90 min. […]

Protein sequences, listed by entry. Tags and fused reporters are not part of them. Lines headed by an entry give the natural chain unless they say otherwise; changes in a name come on top.
UniProt P20813: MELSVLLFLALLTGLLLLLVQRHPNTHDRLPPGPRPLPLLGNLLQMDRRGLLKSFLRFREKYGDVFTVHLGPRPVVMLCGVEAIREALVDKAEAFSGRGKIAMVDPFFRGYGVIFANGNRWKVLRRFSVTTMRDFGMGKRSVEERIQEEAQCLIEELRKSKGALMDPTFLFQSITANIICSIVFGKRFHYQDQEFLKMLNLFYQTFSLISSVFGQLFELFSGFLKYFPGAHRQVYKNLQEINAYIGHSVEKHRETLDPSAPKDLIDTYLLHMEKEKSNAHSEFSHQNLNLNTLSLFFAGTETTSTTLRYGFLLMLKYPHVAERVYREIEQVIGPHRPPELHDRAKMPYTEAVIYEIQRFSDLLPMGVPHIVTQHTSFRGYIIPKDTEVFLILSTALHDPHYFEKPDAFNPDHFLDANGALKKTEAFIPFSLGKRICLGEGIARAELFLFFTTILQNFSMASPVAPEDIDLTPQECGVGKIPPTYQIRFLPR

Structure (SMILES) | AC50 | outcome
CCOC(=O)C(C)Oc1ccc(Oc2cnc3cc(Cl)ccc3n2)cc1 (stereo unspecified) | inconclusive: 20000 nM | 
CCCCOC(=O)C(C)Oc1ccc(Oc2ccc(C(F)(F)F)cn2)cc1 (stereo unspecified) |  | inactive
CCOC(=O)COc1cc(-n2ncc(C(F)(F)F)c(C)c2=O)c(F)cc1Cl |  | inactive
O=C(O)C1(C(=O)Nc2ccc(Cl)cc2Cl)CC1 | inconclusive: 20000 nM | 
COc1nc(C)nc(NC(=O)NS(=O)(=O)c2ccccc2OCCCl)n1 | inconclusive: 119 nM | 
COC(=O)c1ccccc1C(=O)O | inconclusive: 10.6 nM | 
N#CSCSc1nc2ccccc2s1 | inconclusive: 117 nM | 
CCCCCOC(=O)COc1cc(N2C(=O)C3=C(CCCC3)C2=O)c(F)cc1Cl |  | inactive
CSC(=O)c1cccc2nnsc12 | inconclusive: 6.12 nM | 
CC(C)(c1ccc(O)cc1)c1ccc(O)cc1 |  | inactive
Cc1nn(C)c(Oc2ccccc2)c1C=NOCc1ccc(C(=O)OC(C)(C)C)cc1 | inconclusive: 2000 nM | 

Source: PubChem BioAssay (EPA / NIEHS)
